Two molecules from paper PMC10881024 can be followed below.

For the experiment, the target named is T1, human FCRL3 (MAIA) entire ectodomain, biotinylated, rat Cd4 domains 3 and 4 tagged (bait construct) (human) (UniProt Q96P31).
T1 sequence (chain, enzymatically biotinylated (BirA) on the biotinylation target sequence): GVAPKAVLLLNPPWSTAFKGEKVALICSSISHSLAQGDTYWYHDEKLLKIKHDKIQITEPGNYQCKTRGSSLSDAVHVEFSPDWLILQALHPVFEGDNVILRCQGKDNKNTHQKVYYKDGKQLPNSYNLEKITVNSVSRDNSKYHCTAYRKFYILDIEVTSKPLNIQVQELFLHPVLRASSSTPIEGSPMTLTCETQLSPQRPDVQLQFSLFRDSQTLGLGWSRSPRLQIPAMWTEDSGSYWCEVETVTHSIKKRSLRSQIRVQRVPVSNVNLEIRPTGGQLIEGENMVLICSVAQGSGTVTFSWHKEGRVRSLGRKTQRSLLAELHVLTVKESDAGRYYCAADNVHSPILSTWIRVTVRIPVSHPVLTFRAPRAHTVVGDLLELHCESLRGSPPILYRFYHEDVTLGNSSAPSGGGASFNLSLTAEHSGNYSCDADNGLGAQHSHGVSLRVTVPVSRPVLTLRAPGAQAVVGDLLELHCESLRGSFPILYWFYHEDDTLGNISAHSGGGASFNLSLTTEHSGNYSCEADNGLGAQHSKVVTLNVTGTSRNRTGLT
As to the kind of experiment: SAVEXIS; purified monomeric biotinylated baits at 13.4 nM captured on streptavidin-coated plates 16 hours at 4°C; preys made multimeric by clustering biotinylated monomers around streptavidin-HRP, 4.4 nM, 1 hour at room temperature; HBS-T washes with desthiobiotin; tetramethylbenzidine, absorbance at 650 nm; both purified.

Results are given in words; binding and its absence hold for the method and conditions named. Tags and fused reporters may be left off the sequences shown.

B1: human TMEM81 ectodomain, biotinylated, rat Cd4 domains 3 and 4 tagged (domain or fragment, UniProt Q6P7N7 31-226)
chain: IPEKLQEAVGKVIINATTCTVTCGLGYKEETVCEVGPDGVRRKCQTRRLECLTNWICGMLHFTILIGKEFELSCLSSDILEFGQEAFRFTWRLARGVISTDDEVFKPFQANSHFVKFKYAQEYDSGTYRCDVQLVKNLRLVKRLYFGLRVLPPNLVNLNFHQSLTEDQKLIDEGLEVNLDSYSKPHHPKWKKKVAS
modifications: enzymatically biotinylated (BirA) on the biotinylation target sequence
For B1, the binding entry is given as “no binding (tested: 4.4 nM multimeric prey)”.

B2: human SPACA6 ectodomain, biotinylated, rat Cd4 domains 3 and 4 tagged (domain or fragment, UniProt W5XKT8 27-295)
chain: CLLCFTTYSERLRICQMFVGMRSPKLEECEEAFTAAFQGLSDTEINYDERSHLHDTFTQMTHALQELAAAQGSFEVAFPDAAEKMKKVITQLKEAQACIPPCGLQEFARRFLCSGCYSRVCDLPLDCPVQDVTVTRGDQAMFSCIVNFQLPKEEITYSWKFAGGGLRTQDLSYFRDMPRAEGYLARIRPAQLTHRGTFSCVIKQDQRPLARLYFFLNVTGPPPRAETELQASFREVLRWAPRDAELIEPWRPSLGELLARPEALTPSNL
modifications: enzymatically biotinylated (BirA) on the biotinylation target sequence
B2: the binding result is “no binding (tested: 4.4 nM multimeric prey)”.
